The name of at least one read-out is uncertain.
System: Syrian golden hamsters (high-fat diet, hyperlipidemia model)
Test: In vivo lipid-lowering activity in high-fat diet golden hamsters
Design: species or system Syrian golden hamster
Procedure: After adaptively feeding Syrian golden hamsters (male, 80-100 g) for a week, all hamsters were fed with high-fat diet. Two weeks later, blood was collected from the orbital venous plexus, serum was separated, and levels of total cholesterol (TC), triglyceride (TG), high-density lipoprotein (HDL-C) and low-density lipoprotein (LDL-C) in serum were measured. They were evenly grouped according to blood lipid levels into […]: model control group, A1 intragastric administration group, A1 intraperitoneal administration group, A5 intragastric administration group, A5 intraperitoneal administration group, A55 intragastric administration group, A55 intraperitoneal administration group, B5 intragastric administration group, B5 intraperitoneal administration group, and the animals in each group were continued to be administered with high fat diet. […] […] Blood lipid levels and body weights were measured every 10 days. After three weeks, the animals were sacrificed and the liver was stored in a −80° C. refrigerator.

Which results are given for COc1ccc2c(c1)c1c(n2CO)CN2CCc3cc(OCc4cccc(F)c4)c(OC)cc3C2C1 (stereo not drawn) [Example A61, (3-((3-fluorobenzyl)oxy)-2,12-dimethoxy-5,6,14,14a-tetrahydroindolo[3′,2′:4,5]pyridine[2,1-a]isoquinoline-9(8H)-yl)methanol]?
LDL-C (Dose 30, oral): 21.45 ± 6.27 mmol/L; TG (Dose 30, oral): 30.29 ± 12.36 mmol/L; LDL-C (Dose 100, oral): 13.76 ± 4.15 mmol/L; TG (Dose 100, oral): 10.32 ± 5.41 mmol/L

For COc1ccc2[nH]c3c(c2c1)CC1c2cc(OCc4ccccc4F)c(OC)cc2CCN1C3 (stereo not drawn) [Example C9, 2-((2-Fluorobenzyl)oxo)-3,12-dimethoxy-5,6,8,9,14,14a-hexahydroindole[3′,2′:4,5]pyridine[2,1-a]isoquinoline], which LDL-C (Dose 30, oral) is on record?
The LDL-C was 20.52 ± 11.15 mmol/L.

And the TG (Dose 30, oral)?
The TG was 33.6 ± 34^ mmol/L.

How did the LDL-C (Dose 30, oral) turn out when COc1ccc2[nH]c3c(c2c1)CC1c2cc(OCc4ccc(C(F)(F)F)cc4)c(OC)cc2CCN1C3 (stereo not drawn) [Example C3, 3,12-dimethoxy-2-((4-(trifluoromethyl)benzyl)oxy)-5,6,8,9,14,14a-hexahydroindolo[3′,2′:4,5]pyridine[2,1-a]isoquinoline] was run?
The LDL-C was 14.33 ± 8.74 mmol/L.

What about the TG (Dose 30, oral) of the same compound?
Its TG is 13.66 ± 15.87 mmol/L.

And the LDL-C (Dose 100, oral)?
The LDL-C was 13.31 ± 3.01 mmol/L.

And the TG (Dose 100, oral)?
The TG was 4.56 ± 1.16 mmol/L.

Which results are given for COc1ccc2[nH]c3c(c2c1)CC1c2cc(OC)c(OCc4ccc(C(F)(F)F)cc4)cc2CCN1C3 (stereo not drawn) [Example C47, 2,12-dimethoxy-3-((4-(trifluoromethyl)benzyl)oxy)-5,6,8,9,14,14a-hexahydroindolo[3′,2′:4,5]pyridine[2,1-a]isoquinoline]?
LDL-C (Dose 30, oral): 11.73 ± 4.16 mmol/L; TG (Dose 30, oral): 8.7 ± 4.72 mmol/L
